According to US6897306B2, “3-heterocyclylpropanohydroxamic acids” (Pfizer Products, Inc., priority 1999, dated 2005):
Some of these results come from one statement about several compounds together.

Amino acid sequences for entries named in this document (tags omitted). Residues count along the entry.
UniProt P08253, 110-446 limits assumed, species assumed: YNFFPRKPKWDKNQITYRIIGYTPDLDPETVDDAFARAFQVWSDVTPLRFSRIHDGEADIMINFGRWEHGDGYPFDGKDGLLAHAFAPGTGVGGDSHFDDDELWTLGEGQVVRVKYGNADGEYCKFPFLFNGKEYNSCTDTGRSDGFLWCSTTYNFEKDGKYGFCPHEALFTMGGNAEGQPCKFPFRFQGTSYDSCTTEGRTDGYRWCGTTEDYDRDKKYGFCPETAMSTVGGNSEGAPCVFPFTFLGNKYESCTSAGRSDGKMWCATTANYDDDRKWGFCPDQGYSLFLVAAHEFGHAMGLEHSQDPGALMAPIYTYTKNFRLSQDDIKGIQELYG

Assays:
[1] = molecular target: T1, Human PCP (Homo sapiens, UniProt P13497); test: fluorogenic PCP cleavage assay (PCP inhibition); format: biochemical; settings: fluorogenic substrate, 37° C., pH 7.6
T1 construct: made in house; host or cells: stably transfected CHO cells (secreted into the supernatant)
T1 sequence (P13497 121-986): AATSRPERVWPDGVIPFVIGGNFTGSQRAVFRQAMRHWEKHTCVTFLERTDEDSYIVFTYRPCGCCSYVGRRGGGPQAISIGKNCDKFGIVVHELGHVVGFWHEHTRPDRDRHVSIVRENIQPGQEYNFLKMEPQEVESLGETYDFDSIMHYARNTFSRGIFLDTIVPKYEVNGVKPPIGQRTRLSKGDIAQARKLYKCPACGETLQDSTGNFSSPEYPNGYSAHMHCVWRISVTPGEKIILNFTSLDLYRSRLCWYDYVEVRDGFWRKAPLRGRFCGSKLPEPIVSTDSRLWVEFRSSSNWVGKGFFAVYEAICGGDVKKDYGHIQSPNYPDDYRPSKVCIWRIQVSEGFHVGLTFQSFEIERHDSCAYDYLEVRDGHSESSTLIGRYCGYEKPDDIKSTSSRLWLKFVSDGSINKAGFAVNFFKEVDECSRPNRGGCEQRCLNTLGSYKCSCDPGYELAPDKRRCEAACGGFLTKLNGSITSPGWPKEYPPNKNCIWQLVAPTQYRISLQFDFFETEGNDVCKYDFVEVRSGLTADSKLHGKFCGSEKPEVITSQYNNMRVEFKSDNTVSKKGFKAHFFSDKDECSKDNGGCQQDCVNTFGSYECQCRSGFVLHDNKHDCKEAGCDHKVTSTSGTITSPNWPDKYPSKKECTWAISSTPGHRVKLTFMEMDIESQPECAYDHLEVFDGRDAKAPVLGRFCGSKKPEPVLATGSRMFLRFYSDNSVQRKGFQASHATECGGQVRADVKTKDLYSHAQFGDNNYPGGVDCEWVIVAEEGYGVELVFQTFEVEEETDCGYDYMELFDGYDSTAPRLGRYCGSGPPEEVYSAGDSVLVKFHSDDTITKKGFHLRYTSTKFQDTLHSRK

[2] = molecular target: T2, Catalytic domain MMP-2 (Homo sapiens, UniProt P08253); test: Inhibition of MMP-2 (fluorogenic peptide cleavage); format: biochemical; settings: relative to PCP IC50
T2 construct: Catalytic domain MMP-2 and MMP-9 were prepared at Pfizer Central Research; made in house

SMILES | IC50 [1] | selectivity vs MMP-2 [2]
CN(C)CCCN(C)C(=O)c1noc([C@H](CCCC2CCCCC2)CC(=O)NO)n1 [Example 48, 5-{(1R)-4-Cyclohexyl-1-[2-(hydroxyamino)-2-oxoethyl]butyl}-N-[3-(dimethylamino)propyl]-N-methyl-1,2,4-oxadiazole-3-carboxamide] | ≤ 0.5 µM | –
CCOC(=O)CCc1noc([C@H](CCCC2CCCCC2)CC(=O)NO)n1 [Example 54, Ethyl 3-(5-{(1R)-4-cyclohexyl-1-[2-(hydroxyamino)-2-oxoethyl]butyl}-1,2,4-oxadiazol-3-yl)propanoate] | ≤ 0.5 µM | –
COC(=O)C1CN(C(=O)c2noc([C@H](CCCC3CCCCC3)CC(=O)NO)n2)C1 [Example 18, Methyl 1-[(5-{(1R)-4-cyclohexyl-1-[2-(hydroxyamino)-2-oxoethyl]butyl}-1,2,4-oxadiazol-3-yl)carbonyl]-3-azetidinecarboxylate] | ≤ 0.5 µM | more than 100 fold
CCOC(=O)COCc1noc([C@H](CCCC2CCCCC2)CC(=O)NO)n1 [Example 49, Ethyl [(5-{(1R)-4-cyclohexyl-1-[2-(hydroxyamino)-2-oxoethyl]butyl}-1,2,4-oxadiazol-3-yl)methoxy]acetate] | ≤ 0.5 µM | –
CC(C)(C)OC(=O)N1CC(NC(=O)c2noc([C@H](CCCC3CCCCC3)CC(=O)NO)n2)C1 [Example 43, tert-Butyl 3-{[(5-{(1R)-4-cyclohexyl-1-[2-(hydroxyamino)-2-oxoethyl]butyl}-1,2,4-oxadiazol-3-yl)carbonyl]amino}-1-azetidinecarboxylate] | ≤ 0.5 µM | more than 100 fold
Cc1noc([C@H](CCCC2CCCCC2)CC(=O)NO)n1 [Example 20, (3R)-6-Cyclohexyl-N-hydroxy-3-(3-methyl-1,2,4-oxadiazol-5-yl)hexanamide] | ≤ 0.5 µM | more than 100 fold
O=C(C[C@@H](CCCC1CCCCC1)c1nc(C(=O)NC2CCC2)no1)NO [Example 7, N-Cyclobutyl-5-{(1R)-4-cyclohexyl-1-[2-(hydroxyamino)-2-oxoethyl]butyl}-1,2,4-oxadiazole-3-carboxamide] | ≤ 0.5 µM | –
Cc1oc([C@H](CCCC2CCCCC2)CC(=O)NO)nc1C(=O)N(C)C [Example 31, 2-{(1R)-4-Cyclohexyl-1-[2-(hydroxyamino)-2-oxoethyl]butyl}-N,N,5-trimethyl-1,3-oxazole-4-carboxamide] | ≤ 0.5 µM | more than 100 fold
CC(C)(C)OC(=O)N(C(=O)OC(C)(C)C)C1CN(C(=O)c2noc([C@H](CCCC3CCCCC3)CC(=O)NO)n2)C1 [Example 45, Di(tert-butyl) 1-[(5-{(1R)-4-cyclohexyl-1-[2-(hydroxyamino)-2-oxoethyl]butyl}-1,2,4-oxadiazol-3-yl)carbonyl]-3-azetidinylimidodicarbonate] | ≤ 0.5 µM | –
COc1ccc(CNC(=O)c2noc([C@H](CCCC3CCCCC3)CC(=O)NO)n2)cc1 [Example 9, 5-{(1R)-4-Cyclohexyl-1-[2-(hydroxyamino)-2-oxoethyl]butyl}-N-(4-methoxybenzyl)-1,2,4-oxadiazole-3-carboxamide] | ≤ 0.5 µM | –
O=C(C[C@@H](CCCC1CCCCC1)c1nc(C(=O)N2CCc3ccccc3C2)no1)NO [Example 36] | ≤ 0.5 µM | more than 100 fold
CCCS(=O)(=O)Cc1noc([C@H](CCCC2CCCCC2)CC(=O)NO)n1 [Example 56, (3R)-6-Cyclohexyl-N-hydroxy-3-{3-[(propylsulfonyl)methyl]-1,2,4-oxadiazol-5-yl}hexanamide] | ≤ 0.5 µM | –
NC1CN(C(=O)c2noc([C@H](CCCC3CCCCC3)CC(=O)NO)n2)C1 [Example 46, (3R)-3-{3-[(3-Amino-1-azetidinyl)carbonyl]-1,2,4-oxadiazol-5-yl}-6-cyclohexyl-N-hydroxyhexanamide] | ≤ 0.5 µM | more than 100 fold
CN(Cc1ccccn1)C(=O)c1noc([C@H](CCCC2CCCCC2)CC(=O)NO)n1 [Example 16, 5-{(1R)-4-Cyclohexyl-1-[2-(hydroxyamino)-2-oxoethyl]butyl}-N-methyl-N-(2-pyridinylmethyl)-1,2,4-oxadiazole-3-carboxamide] | ≤ 0.5 µM | more than 100 fold
O=C(C[C@@H](CCCC1CCCCC1)c1nc(C(=O)NCC2CC2)no1)NO [Example 6, 5-{(1R)-4-Cyclohexyl-1-[2-(hydroxyamino)-2-oxoethyl]butyl}-N-(cyclopropylmethyl)-1,2,4-oxadiazole-3-carboxamide] | ≤ 0.5 µM | –
O=C(C[C@@H](CCCC1CCCCC1)c1nc(C(=O)N2CC(C(=O)O)C2)no1)NO [Example 19, 1-[(5-{(1R)-4-Cyclohexyl-1-[2-(hydroxyamino)-2-oxoethyl]butyl}-1,2,4-oxadiazol-3-yl)carbonyl]-3-azetidinecarboxylic Acid] | ≤ 0.5 µM | more than 100 fold
CC(C)NC(=O)c1noc([C@H](CCCC2CCCCC2)CC(=O)NO)n1 [Example 5, 5-{(1R)-4-Cyclohexyl-1-[2-(hydroxyamino)-2-oxoethyl]butyl}-N-isopropyl-1,2,4-oxadiazole-3-carboxamide] | ≤ 0.5 µM | –
CN(C)C1CN(C(=O)c2noc([C@H](CCCC3CCCCC3)CC(=O)NO)n2)C1 [Example 42, (3R)-6-Cyclohexyl-3-(3-{[3-(dimethylamino)-1-azetidinyl]carbonyl}-1,2,4-oxadiazol-5-yl)-N-hydroxyhexanamide] | ≤ 0.5 µM | –
O=C(C[C@@H](CCCC1CCCCC1)c1nc(C(=O)N2CCCCC2)no1)NO [Example 34] | ≤ 0.5 µM | more than 100 fold
CC(OCc1noc([C@H](CCCC2CCCCC2)CC(=O)NO)n1)C(=O)O (stereo partly drawn) [Example 52, 2-[(5-{(1R)-4-Cyclohexyl-1-[2-(hydroxyamino)-2-oxoethyl]butyl}-1,2,4-oxadiazol-3-yl)methoxy]propanoic Acid] | ≤ 0.5 µM | –
CN(C)CCN(C)C(=O)c1noc([C@H](CCCC2CCCCC2)CC(=O)NO)n1 [Example 47, 5-{(1R)-4-Cyclohexyl-1-[2-(hydroxyamino)-2-oxoethyl]butyl}-N-[2-(dimethylamino)ethyl]-N-methyl-1,2,4-oxadiazole-3-carboxamide] | ≤ 0.5 µM | –
CCOC(=O)C(C)OCc1noc([C@H](CCCC2CCCCC2)CC(=O)NO)n1 (stereo partly drawn) [Example 51, Ethyl 2-[(5-{(1R)-4-cyclohexyl-1-[2-(hydroxyamino)-2-oxoethyl]butyl}-1,2,4-oxadiazol-3-yl)methoxy]propanoate] | ≤ 0.5 µM | –
O=C(O)CCc1noc([C@H](CCCC2CCCCC2)CC(=O)NO)n1 [Example 55, 3-(5-{(1R)-4-Cyclohexyl-1-[2-(hydroxyamino)-2-oxoethyl]butyl}-1,2,4-oxadiazol-3-yl)propanoic Acid] | ≤ 0.5 µM | –
O=C(C[C@@H](CCCC1CCCCC1)c1nc(C(=O)NCc2ccccn2)no1)NO [Example 10, 5-{(1R)-4-Cyclohexyl-1-[2-(hydroxyamino)-2-oxoethyl]butyl}-N-(2-pyridinylmethyl) -1,2,4-oxadiazole-3-carboxamide] | ≤ 0.5 µM | –
Cc1oc([C@H](CCCC2CCCCC2)CC(=O)NO)nc1C(=O)NCC(=O)O [Example 58, {[(2-{(1R)-4-Cyclohexyl-1-[2-(hydroxyamino)-2-oxoethyl]butyl}-5-methyl-1,3-oxazol-4-yl)carbonyl]amino}acetic Acid] | ≤ 0.5 µM | –
COc1ccccc1CNC(=O)c1noc([C@H](CCCC2CCCCC2)CC(=O)NO)n1 [Example 8, 5-{(1R)-4-Cyclohexyl-1-[2-(hydroxyamino)-2-oxoethyl]butyl}-N-(2-methoxybenzyl)-1,2,4-oxadiazole-3-carboxamide] | ≤ 0.5 µM | –
NC(=O)COCc1noc([C@H](CCCC2CCCCC2)CC(=O)NO)n1 [Example 53, (3R)-3-{3-[(2-Amino-2-oxoethoxy)methyl]-1,2,4-oxadiazol-5-yl}-6-cyclohexyl-N-hydroxyhexanamide] | ≤ 0.5 µM | –
O=C(O)COCc1noc([C@H](CCCC2CCCCC2)CC(=O)NO)n1 [Example 50, [(5-{(1R)-4-Cyclohexyl-1-[2-(hydroxyamino)-2-oxoethyl]butyl}-1,2,4-oxadiazol-3-yl)methoxy]acetic Acid] | ≤ 0.5 µM | –
O=C(O)CNC(=O)c1noc([C@H](CCCC2CCCCC2)CC(=O)NO)n1 [Example 11, 2-{[(5-{(1R)-4-Cyclohexyl-1-[2-(hydroxyamino)-2-oxoethyl]butyl}-1,2,4-oxadiazol-3-yl)carbonyl]amino}acetic Acid] | ≤ 0.5 µM | –
Cc1oc([C@H](CCCC2CCCCC2)CC(=O)NO)nc1C(=O)NCCN(C)C [Example 57, 2-{(1R)-4-Cyclohexyl-1-[2-(hydroxyamino)-2-oxoethyl]butyl}-N-[2-(dimethylamino)ethyl]-5-methyl-1,3-oxazole-4-carboxamide] | ≤ 0.5 µM | –
